Experimental findings from article PMC9182007, “Statistical Methods in the Study of Protein Binding and Its Relationship to Drug Bioavailability in Breast Milk” (Molecules, 2022) are described below.

By UniProt entry, the sequences of proteins in these tests, tags left out. Residues count along the entry.
UniProt P02768, 25-609: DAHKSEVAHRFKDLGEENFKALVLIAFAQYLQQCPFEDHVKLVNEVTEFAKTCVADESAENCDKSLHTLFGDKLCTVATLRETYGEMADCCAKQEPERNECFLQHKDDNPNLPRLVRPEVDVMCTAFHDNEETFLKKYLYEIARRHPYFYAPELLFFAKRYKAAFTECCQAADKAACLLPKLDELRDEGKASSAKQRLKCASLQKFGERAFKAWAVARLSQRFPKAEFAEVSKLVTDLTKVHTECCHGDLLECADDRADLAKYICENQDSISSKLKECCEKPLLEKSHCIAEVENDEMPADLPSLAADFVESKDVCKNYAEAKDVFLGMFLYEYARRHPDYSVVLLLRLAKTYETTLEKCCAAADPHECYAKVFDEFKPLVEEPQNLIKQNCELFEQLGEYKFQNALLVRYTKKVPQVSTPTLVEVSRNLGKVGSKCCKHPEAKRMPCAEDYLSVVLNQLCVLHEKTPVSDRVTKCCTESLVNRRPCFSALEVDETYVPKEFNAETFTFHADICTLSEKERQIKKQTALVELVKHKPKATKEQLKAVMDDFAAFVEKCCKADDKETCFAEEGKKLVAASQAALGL

The target in the test is human serum albumin (HSA) (Homo sapiens, UniProt P02768). The conditions noted are these: pH 7.4.

For `Clc1ccc2c(c1)CCc1cccnc1C2=C1CCNCC1` [desloratidine], the “k HSA” value came to 5.97 and the “log k HSA” value is reported as 0.78.
